Measured values: US20180208902A1
No constants are given. Whether binding was seen depends on the method and setting. Some results given as binding are weak or reduced against the parent protein; the word gives no strength.

Sequences of proteins named here, by UniProt entry; tags and fusion partners are left off. A change or cut given only in a name is not applied to a line headed by its entry. Residues count along the entry.
UniProt P09038, residues 135-288: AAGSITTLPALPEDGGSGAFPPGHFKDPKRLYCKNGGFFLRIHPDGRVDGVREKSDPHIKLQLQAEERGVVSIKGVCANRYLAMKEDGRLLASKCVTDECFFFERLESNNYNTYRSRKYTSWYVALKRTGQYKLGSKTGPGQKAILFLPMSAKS
UniProt P04004: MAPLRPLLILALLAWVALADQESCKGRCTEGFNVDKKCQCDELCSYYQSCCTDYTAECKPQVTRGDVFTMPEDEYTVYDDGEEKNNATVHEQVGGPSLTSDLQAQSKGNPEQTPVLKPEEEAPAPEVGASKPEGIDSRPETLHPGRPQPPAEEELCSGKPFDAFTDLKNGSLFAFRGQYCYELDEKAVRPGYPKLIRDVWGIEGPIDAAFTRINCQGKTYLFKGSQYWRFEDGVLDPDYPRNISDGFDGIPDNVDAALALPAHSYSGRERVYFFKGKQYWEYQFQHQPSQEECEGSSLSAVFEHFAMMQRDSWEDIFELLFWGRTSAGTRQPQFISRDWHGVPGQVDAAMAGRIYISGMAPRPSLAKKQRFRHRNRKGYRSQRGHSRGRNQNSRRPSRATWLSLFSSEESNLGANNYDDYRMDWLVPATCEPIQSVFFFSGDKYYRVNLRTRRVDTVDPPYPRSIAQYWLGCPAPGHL

Experiments:
[1] = molecular target: basic fibroblast growth factor (bFGF) (UniProt P09038); assay: Plate coated with RCP-1, bFGF solutions 37 C for 24 h, bound bFGF detected with a bFGF ELISA kit (absorbance 450 nm)
[2] = molecular target: basic fibroblast growth factor (bFGF) (UniProt P09038); assay: RCP-1 mixed with Essential 8 medium (bFGF 100 ng/mL), 37 C for 24 h, remaining bFGF determined by ELISA
[3] = molecular target: basic fibroblast growth factor (bFGF) (UniProt P09038); assay: bFGF ELISA of culture supernatants from bFGF-treated RCP-1 wells (bFGF not detected)
[4] = molecular target: basic fibroblast growth factor (bFGF) (UniProt P09038); assay: Human iPS cell culture on bFGF-treated RCP-1 wells in bFGF-free medium (inferred from proliferation)

binding [1]: binds | binding [2]: binds | binding [3]: binds | binding [4]: binds
Substance: RCP-1 (polypeptide consisting of the amino acid sequence represented by SEQ ID No: 16) (from UniProt P04004 20-392)
